Results published in PMC4683056.
Results are given in words; binding and its absence hold for the method and conditions named. For part of these data: Binding seen in cells or lysates may run through a third protein. Some results given as binding are weak or reduced against the parent protein; the word gives no strength. For part of these data: Sequences can lack the tags named with a protein.

By UniProt entry, the sequences of proteins in these tests, tags left out.
UniProt Q8IZD2: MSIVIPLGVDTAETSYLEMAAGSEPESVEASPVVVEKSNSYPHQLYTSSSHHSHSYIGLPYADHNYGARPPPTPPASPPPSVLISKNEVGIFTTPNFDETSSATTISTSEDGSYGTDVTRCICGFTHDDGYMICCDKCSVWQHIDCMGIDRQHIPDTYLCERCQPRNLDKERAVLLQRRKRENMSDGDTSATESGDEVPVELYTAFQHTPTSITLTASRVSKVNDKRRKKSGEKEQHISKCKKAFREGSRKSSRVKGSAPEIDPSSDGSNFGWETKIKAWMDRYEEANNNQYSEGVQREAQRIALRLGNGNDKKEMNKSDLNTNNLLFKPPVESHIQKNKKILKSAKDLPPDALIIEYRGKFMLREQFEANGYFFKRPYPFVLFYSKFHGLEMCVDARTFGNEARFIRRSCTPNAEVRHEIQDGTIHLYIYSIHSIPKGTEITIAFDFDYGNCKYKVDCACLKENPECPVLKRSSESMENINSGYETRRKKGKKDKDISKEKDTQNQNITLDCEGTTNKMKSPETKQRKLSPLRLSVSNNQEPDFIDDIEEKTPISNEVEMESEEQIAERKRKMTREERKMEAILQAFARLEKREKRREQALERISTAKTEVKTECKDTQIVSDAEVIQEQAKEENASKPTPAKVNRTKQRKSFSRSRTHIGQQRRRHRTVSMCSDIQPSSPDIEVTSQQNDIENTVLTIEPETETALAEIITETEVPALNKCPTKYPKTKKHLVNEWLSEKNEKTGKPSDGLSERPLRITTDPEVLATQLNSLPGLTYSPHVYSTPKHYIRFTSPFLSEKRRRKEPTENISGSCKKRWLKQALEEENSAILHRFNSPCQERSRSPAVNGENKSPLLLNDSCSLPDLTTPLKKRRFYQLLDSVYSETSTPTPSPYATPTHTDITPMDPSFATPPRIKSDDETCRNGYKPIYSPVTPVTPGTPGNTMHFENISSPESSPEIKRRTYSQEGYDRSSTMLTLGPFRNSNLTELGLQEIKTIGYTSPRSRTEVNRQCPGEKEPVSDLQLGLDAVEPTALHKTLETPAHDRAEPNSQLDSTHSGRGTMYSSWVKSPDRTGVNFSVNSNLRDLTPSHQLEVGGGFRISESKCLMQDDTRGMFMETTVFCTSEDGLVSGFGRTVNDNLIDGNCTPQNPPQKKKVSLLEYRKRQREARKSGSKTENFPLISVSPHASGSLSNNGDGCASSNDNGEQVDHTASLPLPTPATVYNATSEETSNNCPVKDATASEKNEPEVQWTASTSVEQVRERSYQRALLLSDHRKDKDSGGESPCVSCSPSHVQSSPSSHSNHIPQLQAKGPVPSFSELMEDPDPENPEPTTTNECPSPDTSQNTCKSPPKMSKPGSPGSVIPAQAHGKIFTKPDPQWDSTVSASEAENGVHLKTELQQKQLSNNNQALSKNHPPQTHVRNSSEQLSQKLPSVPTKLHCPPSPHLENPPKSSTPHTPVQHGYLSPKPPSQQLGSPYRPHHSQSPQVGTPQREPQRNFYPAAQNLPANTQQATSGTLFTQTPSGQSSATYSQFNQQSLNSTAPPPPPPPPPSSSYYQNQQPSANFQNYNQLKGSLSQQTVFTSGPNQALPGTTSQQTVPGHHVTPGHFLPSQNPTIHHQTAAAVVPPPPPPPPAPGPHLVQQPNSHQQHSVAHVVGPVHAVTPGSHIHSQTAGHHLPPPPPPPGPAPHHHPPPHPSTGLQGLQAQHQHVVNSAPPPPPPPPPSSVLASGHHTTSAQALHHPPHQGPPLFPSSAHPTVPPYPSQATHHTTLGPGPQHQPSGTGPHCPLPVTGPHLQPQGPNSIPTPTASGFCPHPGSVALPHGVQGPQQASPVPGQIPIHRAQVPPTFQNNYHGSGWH
UniProt Q93009: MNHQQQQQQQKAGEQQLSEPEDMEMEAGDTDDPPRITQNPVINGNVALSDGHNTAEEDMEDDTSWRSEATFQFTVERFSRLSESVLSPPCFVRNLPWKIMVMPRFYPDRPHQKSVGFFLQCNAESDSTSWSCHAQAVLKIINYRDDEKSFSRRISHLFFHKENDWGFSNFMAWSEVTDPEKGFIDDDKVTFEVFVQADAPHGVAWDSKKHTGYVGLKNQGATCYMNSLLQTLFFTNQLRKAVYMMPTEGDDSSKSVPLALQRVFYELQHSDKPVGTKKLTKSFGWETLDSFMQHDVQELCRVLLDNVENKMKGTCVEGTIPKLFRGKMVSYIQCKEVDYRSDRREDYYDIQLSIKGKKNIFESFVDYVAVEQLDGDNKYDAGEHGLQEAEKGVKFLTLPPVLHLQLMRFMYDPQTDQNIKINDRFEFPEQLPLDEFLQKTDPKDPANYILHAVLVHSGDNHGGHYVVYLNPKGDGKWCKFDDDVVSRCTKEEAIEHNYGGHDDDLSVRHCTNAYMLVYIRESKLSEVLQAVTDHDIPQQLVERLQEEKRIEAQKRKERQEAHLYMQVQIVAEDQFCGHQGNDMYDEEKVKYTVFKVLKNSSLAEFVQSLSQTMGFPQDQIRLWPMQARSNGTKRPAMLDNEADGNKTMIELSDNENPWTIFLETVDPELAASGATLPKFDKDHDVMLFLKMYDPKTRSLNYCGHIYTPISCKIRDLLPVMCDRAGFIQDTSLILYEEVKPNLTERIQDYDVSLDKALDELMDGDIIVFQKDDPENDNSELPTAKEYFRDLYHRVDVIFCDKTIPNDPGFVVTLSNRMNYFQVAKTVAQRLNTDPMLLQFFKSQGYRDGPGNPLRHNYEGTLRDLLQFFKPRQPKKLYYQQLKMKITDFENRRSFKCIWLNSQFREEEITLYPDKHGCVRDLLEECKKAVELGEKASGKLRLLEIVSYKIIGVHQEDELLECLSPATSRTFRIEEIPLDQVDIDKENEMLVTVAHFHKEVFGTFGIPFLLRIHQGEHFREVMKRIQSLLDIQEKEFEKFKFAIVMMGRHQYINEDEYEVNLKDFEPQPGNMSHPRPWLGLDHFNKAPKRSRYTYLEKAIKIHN

T1: FLAG-tagged OGT (O-GlcNAc transferase) (UniProt O15294)
T1 sequence: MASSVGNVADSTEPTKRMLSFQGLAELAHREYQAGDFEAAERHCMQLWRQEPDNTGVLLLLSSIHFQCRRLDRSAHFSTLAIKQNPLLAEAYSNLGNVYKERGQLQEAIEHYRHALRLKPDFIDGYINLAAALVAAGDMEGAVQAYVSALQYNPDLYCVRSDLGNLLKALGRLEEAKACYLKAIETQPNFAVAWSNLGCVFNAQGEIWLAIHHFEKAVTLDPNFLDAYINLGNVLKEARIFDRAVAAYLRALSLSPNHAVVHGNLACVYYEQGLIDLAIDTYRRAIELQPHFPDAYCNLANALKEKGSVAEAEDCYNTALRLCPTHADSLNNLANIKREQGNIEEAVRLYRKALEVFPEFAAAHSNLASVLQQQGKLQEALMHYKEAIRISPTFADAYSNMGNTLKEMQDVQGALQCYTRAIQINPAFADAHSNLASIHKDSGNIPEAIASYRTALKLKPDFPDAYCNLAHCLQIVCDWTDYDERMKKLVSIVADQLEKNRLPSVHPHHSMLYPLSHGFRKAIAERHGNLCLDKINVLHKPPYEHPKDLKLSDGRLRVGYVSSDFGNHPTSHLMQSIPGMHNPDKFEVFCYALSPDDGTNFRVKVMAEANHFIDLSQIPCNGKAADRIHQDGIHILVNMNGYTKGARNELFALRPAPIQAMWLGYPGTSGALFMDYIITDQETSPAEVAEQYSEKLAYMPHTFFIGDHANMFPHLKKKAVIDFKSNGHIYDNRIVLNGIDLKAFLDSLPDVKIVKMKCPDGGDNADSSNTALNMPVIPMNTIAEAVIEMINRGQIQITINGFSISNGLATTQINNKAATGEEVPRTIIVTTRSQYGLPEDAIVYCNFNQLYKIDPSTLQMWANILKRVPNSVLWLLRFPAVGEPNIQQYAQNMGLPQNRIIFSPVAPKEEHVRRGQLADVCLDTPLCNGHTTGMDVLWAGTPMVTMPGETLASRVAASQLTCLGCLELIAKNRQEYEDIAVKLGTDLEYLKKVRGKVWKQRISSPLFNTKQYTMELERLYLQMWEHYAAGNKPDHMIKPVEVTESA


Columns and labels:
3×FLAG-tagged MLL5 [1] = molecular target: 3×FLAG-tagged MLL5 (UniProt Q8IZD2); experiment: co-IP; HEK293T co-transfected with three proteins (3×FLAG-MLL5, HA-USP7, V5-OGT); immunoprecipitation with anti-FLAG, anti-HA or anti-V5, western blot
3×FLAG-tagged MLL5 [2] = molecular target: 3×FLAG-tagged MLL5 (UniProt Q8IZD2); experiment: SEC; HEK293T co-transfected with MLL5-3×FLAG, OGT-V5 and USP7; anti-FLAG M2 affinity gel, 3×FLAG peptide eluate run on Superdex-200 3.2/300 in lysis buffer; fractions assayed by western blot
3×FLAG-tagged MLL5 [3] = molecular target: 3×FLAG-tagged MLL5 (UniProt Q8IZD2); experiment: co-IP; HEK293T co-transfected with two tagged proteins, 48 h; lysis in 1% NP-40, 20 mM HEPES pH 7.5, 20 mM KCl, 150 mM NaCl, 5 mM EDTA; antibody 14 h at 4°C, protein A/G plus agarose; western blot for the tags
[4] = molecular target: T1, FLAG-tagged OGT (O-GlcNAc transferase); experiment: as above
[5] = molecular target: HA-tagged USP7 (ubiquitin-specific protease 7) (UniProt Q93009); experiment: co-IP; HEK293T co-transfected with three proteins (3×FLAG-MLL5, HA-USP7, V5-OGT); immunoprecipitation with anti-FLAG, anti-HA or anti-V5, western blot
[6] = molecular target: HA-tagged USP7 (ubiquitin-specific protease 7) (UniProt Q93009); experiment: co-IP; HEK293T co-transfected with two tagged proteins, 48 h; lysis in 1% NP-40, 20 mM HEPES pH 7.5, 20 mM KCl, 150 mM NaCl, 5 mM EDTA; antibody 14 h at 4°C, protein A/G plus agarose; western blot for the tags

Row | binding (3×FLAG-tagged MLL5 [1]) | binding (3×FLAG-tagged MLL5 [2]) | binding (3×FLAG-tagged MLL5 [3]) | binding [4] | binding [5] | binding [6] | Molecule
1 | binds | binds | binds | – | – | – | HA-tagged USP7 (ubiquitin-specific protease 7) (from UniProt Q93009 1-1102) (enzyme)
2 | – | – | binds | binds | – | – | Myc-tagged USP7 (from UniProt Q93009 1-1102) (enzyme)
3 | binds | binds | – | – | binds | – | V5-tagged OGT (enzyme, UniProt O15294 1-1046) MASSVGNVADSTEPTKRMLSFQGLAELAHREYQAGDFEAAERHCMQLWRQEPDNTGVLLLLSSIHFQCRRLDRSAHFSTLAIKQNPLLAEAYSNLGNVYKERGQLQEAIEHYRHALRLKPDFIDGYINLAAALVAAGDMEGAVQAYVSALQYNPDLYCVRSDLGNLLKALGRLEEAKACYLKAIETQPNFAVAWSNLGCVFNAQGEIWLAIHHFEKAVTLDPNFLDAYINLGNVLKEARIFDRAVAAYLRALSLSPNHAVVHGNLACVYYEQGLIDLAIDTYRRAIELQPHFPDAYCNLANALKEKGSVAEAEDCYNTALRLCPTHADSLNNLANIKREQGNIEEAVRLYRKALEVFPEFAAAHSNLASVLQQQGKLQEALMHYKEAIRISPTFADAYSNMGNTLKEMQDVQGALQCYTRAIQINPAFADAHSNLASIHKDSGNIPEAIASYRTALKLKPDFPDAYCNLAHCLQIVCDWTDYDERMKKLVSIVADQLEKNRLPSVHPHHSMLYPLSHGFRKAIAERHGNLCLDKINVLHKPPYEHPKDLKLSDGRLRVGYVSSDFGNHPTSHLMQSIPGMHNPDKFEVFCYALSPDDGTNFRVKVMAEANHFIDLSQIPCNGKAADRIHQDGIHILVNMNGYTKGARNELFALRPAPIQAMWLGYPGTSGALFMDYIITDQETSPAEVAEQYSEKLAYMPHTFFIGDHANMFPHLKKKAVIDFKSNGHIYDNRIVLNGIDLKAFLDSLPDVKIVKMKCPDGGDNADSSNTALNMPVIPMNTIAEAVIEMINRGQIQITINGFSISNGLATTQINNKAATGEEVPRTIIVTTRSQYGLPEDAIVYCNFNQLYKIDPSTLQMWANILKRVPNSVLWLLRFPAVGEPNIQQYAQNMGLPQNRIIFSPVAPKEEHVRRGQLADVCLDTPLCNGHTTGMDVLWAGTPMVTMPGETLASRVAASQLTCLGCLELIAKNRQEYEDIAVKLGTDLEYLKKVRGKVWKQRISSPLFNTKQYTMELERLYLQMWEHYAAGNKPDHMIKPVEVTESA
4 | – | – | – | – | – | binds | FLAG-tagged OGT (O-GlcNAc transferase) (enzyme, UniProt O15294 1-1046) MASSVGNVADSTEPTKRMLSFQGLAELAHREYQAGDFEAAERHCMQLWRQEPDNTGVLLLLSSIHFQCRRLDRSAHFSTLAIKQNPLLAEAYSNLGNVYKERGQLQEAIEHYRHALRLKPDFIDGYINLAAALVAAGDMEGAVQAYVSALQYNPDLYCVRSDLGNLLKALGRLEEAKACYLKAIETQPNFAVAWSNLGCVFNAQGEIWLAIHHFEKAVTLDPNFLDAYINLGNVLKEARIFDRAVAAYLRALSLSPNHAVVHGNLACVYYEQGLIDLAIDTYRRAIELQPHFPDAYCNLANALKEKGSVAEAEDCYNTALRLCPTHADSLNNLANIKREQGNIEEAVRLYRKALEVFPEFAAAHSNLASVLQQQGKLQEALMHYKEAIRISPTFADAYSNMGNTLKEMQDVQGALQCYTRAIQINPAFADAHSNLASIHKDSGNIPEAIASYRTALKLKPDFPDAYCNLAHCLQIVCDWTDYDERMKKLVSIVADQLEKNRLPSVHPHHSMLYPLSHGFRKAIAERHGNLCLDKINVLHKPPYEHPKDLKLSDGRLRVGYVSSDFGNHPTSHLMQSIPGMHNPDKFEVFCYALSPDDGTNFRVKVMAEANHFIDLSQIPCNGKAADRIHQDGIHILVNMNGYTKGARNELFALRPAPIQAMWLGYPGTSGALFMDYIITDQETSPAEVAEQYSEKLAYMPHTFFIGDHANMFPHLKKKAVIDFKSNGHIYDNRIVLNGIDLKAFLDSLPDVKIVKMKCPDGGDNADSSNTALNMPVIPMNTIAEAVIEMINRGQIQITINGFSISNGLATTQINNKAATGEEVPRTIIVTTRSQYGLPEDAIVYCNFNQLYKIDPSTLQMWANILKRVPNSVLWLLRFPAVGEPNIQQYAQNMGLPQNRIIFSPVAPKEEHVRRGQLADVCLDTPLCNGHTTGMDVLWAGTPMVTMPGETLASRVAASQLTCLGCLELIAKNRQEYEDIAVKLGTDLEYLKKVRGKVWKQRISSPLFNTKQYTMELERLYLQMWEHYAAGNKPDHMIKPVEVTESA
